Source: PMC4264851
No constants are given. Whether binding was seen depends on the method and setting. In cells and extracts the contact can be indirect. A yes stands for co-enrichment or nearness to the bait. Other partners may have been found. For some assays here: Tags and fused reporters may be left off the sequences shown.

Key:
[1] = molecular target: T1, Utp12-FLAG (S. cerevisiae) (UniProt Q12220); assay: affinity purification with mass spectrometry; only Utp12-FLAG and Utp13 co-expressed in SF21 cells (bacmid K1978); one-step anti-FLAG purification, FLAG peptide elution; SDS-PAGE and MS
T1 sequence: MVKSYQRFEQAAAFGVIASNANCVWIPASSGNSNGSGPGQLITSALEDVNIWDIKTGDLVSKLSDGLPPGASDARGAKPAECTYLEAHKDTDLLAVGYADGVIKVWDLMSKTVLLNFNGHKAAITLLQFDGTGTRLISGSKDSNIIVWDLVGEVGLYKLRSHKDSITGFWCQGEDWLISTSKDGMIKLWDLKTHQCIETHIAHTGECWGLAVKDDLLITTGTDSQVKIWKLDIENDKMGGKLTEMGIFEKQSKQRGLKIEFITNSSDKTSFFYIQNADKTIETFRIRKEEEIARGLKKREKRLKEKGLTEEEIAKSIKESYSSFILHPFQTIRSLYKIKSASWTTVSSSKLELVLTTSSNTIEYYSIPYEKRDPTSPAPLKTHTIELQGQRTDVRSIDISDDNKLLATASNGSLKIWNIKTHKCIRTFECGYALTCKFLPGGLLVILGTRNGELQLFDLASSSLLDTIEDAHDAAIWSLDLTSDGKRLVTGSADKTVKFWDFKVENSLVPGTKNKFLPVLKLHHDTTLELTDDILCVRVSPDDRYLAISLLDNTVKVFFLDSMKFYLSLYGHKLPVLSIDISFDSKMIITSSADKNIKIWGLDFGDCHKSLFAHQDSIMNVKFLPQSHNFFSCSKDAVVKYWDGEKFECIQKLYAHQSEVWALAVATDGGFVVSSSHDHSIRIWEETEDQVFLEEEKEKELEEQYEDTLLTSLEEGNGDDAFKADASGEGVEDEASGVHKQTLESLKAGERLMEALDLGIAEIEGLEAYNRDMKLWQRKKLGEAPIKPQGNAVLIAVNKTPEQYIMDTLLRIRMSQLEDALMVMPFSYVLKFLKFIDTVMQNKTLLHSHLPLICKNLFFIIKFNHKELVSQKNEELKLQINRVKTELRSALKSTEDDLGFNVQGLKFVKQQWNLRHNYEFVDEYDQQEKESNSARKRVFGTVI

Pwp2-TAP (S. cerevisiae) [2] = molecular target: T2, Pwp2-TAP (S. cerevisiae) (UniProt P25635); assay: affinity purification with mass spectrometry; Pwp2-TAP, Utp6-HA, Utp12-FLAG, Utp13, Utp18 and Utp21 co-expressed in SF21 cells (bacmid K1991); one-step, bait Pwp2-TAP on IgG Sepharose, TEV elution; SDS-PAGE, Coomassie, MS of bands
T2 sequence: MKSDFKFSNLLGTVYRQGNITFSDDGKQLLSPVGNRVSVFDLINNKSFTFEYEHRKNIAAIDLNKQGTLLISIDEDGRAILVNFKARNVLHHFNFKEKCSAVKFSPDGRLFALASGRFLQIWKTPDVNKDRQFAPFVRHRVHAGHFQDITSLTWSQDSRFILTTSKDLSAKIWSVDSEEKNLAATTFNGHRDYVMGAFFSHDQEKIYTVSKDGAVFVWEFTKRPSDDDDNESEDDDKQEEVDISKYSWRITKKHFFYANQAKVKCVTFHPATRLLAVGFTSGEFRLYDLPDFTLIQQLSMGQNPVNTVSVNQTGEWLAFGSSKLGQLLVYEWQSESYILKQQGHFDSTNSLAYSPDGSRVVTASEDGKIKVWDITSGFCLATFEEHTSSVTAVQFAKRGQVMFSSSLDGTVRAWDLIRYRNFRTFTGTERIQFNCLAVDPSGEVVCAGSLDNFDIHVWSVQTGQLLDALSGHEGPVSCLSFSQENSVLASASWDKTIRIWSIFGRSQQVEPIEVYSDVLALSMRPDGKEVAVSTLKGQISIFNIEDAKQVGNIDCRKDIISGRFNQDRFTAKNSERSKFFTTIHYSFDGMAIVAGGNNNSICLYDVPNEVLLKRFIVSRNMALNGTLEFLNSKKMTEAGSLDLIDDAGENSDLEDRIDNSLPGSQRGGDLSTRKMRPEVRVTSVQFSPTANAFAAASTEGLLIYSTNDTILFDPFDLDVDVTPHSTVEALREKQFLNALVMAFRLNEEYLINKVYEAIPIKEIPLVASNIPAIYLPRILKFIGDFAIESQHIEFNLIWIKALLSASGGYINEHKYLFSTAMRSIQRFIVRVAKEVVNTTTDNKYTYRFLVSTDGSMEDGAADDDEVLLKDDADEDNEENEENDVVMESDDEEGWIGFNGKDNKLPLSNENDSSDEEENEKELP

Utp6-HA (S. cerevisiae) [3] = molecular target: T3, Utp6-HA (S. cerevisiae) (UniProt Q02354); assay: affinity purification with mass spectrometry; bacmid K1992 (six UTP B proteins); two-step: anti-FLAG eluate (Utp12-FLAG) purified again on anti-HA affinity matrix with Utp6-HA as bait, HA peptide elution; SDS-PAGE, Coomassie, MS of bands
T3 sequence: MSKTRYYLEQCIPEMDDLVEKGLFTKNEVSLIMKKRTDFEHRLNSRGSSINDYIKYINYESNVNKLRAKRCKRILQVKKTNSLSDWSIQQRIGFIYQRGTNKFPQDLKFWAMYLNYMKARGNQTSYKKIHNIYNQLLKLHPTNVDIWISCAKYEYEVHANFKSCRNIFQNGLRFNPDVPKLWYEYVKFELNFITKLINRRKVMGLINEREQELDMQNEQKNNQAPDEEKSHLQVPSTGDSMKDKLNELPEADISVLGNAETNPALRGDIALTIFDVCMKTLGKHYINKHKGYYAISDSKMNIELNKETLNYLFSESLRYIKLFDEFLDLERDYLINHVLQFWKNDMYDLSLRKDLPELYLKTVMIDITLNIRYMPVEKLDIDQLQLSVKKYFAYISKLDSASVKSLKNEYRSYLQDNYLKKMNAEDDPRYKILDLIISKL

Utp6-HA (S. cerevisiae) [4] = molecular target: T3, Utp6-HA (S. cerevisiae); assay: affinity purification with mass spectrometry; bacmid K1991 (six UTP B proteins); two-step: IgG Sepharose/TEV eluate (Pwp2-TAP) purified again on anti-HA affinity matrix with Utp6-HA as bait, HA peptide elution; SDS-PAGE, Coomassie, MS of bands
[5] = molecular target: T1, Utp12-FLAG (S. cerevisiae); assay: affinity purification with mass spectrometry; Pwp2, Utp6-HA, Utp12-FLAG, Utp13, Utp18 and Utp21 co-expressed in SF21 cells (bacmid K1992); one-step, bait Utp12-FLAG on anti-FLAG affinity matrix, FLAG peptide elution; SDS-PAGE, Coomassie, MS of bands
Pwp2-TAP (S. cerevisiae) [6] = molecular target: T2, Pwp2-TAP (S. cerevisiae); assay: affinity purification with mass spectrometry; only Pwp2-TAP, Utp6-HA, Utp18 and Utp21 co-expressed in SF21 cells (bacmid K1987), without Utp12 and Utp13; one-step, bait Pwp2-TAP on IgG-coupled beads, TEV elution; SDS-PAGE and MS

Measured: binding

B1: Utp13 (protein, UniProt Q05946 1-817)
chain: MDLKTSYKGISLNPIYAGSSAVATVSENGKILATPVLDEINIIDLTPGSRKILHKISNEDEQEITALKLTPDGQYLTYVSQAQLLKIFHLKTGKVVRSMKISSPSYILDADSTSTLLAVGGTDGSIIVVDIENGYITHSFKGHGGTISSLKFYGQLNSKIWLLASGDTNGMVKVWDLVKRKCLHTLQEHTSAVRGLDIIEVPDNDEPSLNLLSGGRDDIINLWDFNMKKKCKLLKTLPVNQQVESCGFLKDGDGKRIIYTAGGDAIFQLIDSESGSVLKRTNKPIEELFIIGVLPILSNSQMFLVLSDQTLQLINVEEDLKNDEDTIQVTSSIAGNHGIIADMRYVGPELNKLALATNSPSLRIIPVPDLSGPEASLPLDVEIYEGHEDLLNSLDATEDGLWIATASKDNTAIVWRYNENSCKFDIYAKYIGHSAAVTAVGLPNIVSKGYPEFLLTASNDLTIKKWIIPKPTASMDVQIIKVSEYTRHAHEKDINALSVSPNDSIFATASYDKTCKIWNLENGELEATLANHKRGLWDVSFCQYDKLLATSSGDKTVKIWSLDTFSVMKTLEGHTNAVQRCSFINKQKQLISCGADGLIKIWDCSSGECLKTLDGHNNRLWALSTMNDGDMIVSADADGVFQFWKDCTEQEIEEEQEKAKLQVEQEQSLQNYMSKGDWTNAFLLAMTLDHPMRLFNVLKRALGESRSRQDTEEGKIEVIFNEELDQAISILNDEQLILLMKRCRDWNTNAKTHTIAQRTIRCILMHHNIAKLSEIPGMVKIVDAIIPYTQRHFTRVDNLVEQSYILDYALVEMDKLF
not listed: Pwp2-TAP (S. cerevisiae) [6]
binds: all other assays above

B2: Utp21 (protein, UniProt Q06078 1-939)
chain: MSIDLKKRKVEEDVRSRGKNSKIFSPFRIIGNVSNGVPFATGTLGSTFYIVTCVGKTFQIYDANTLHLLFVSEKETPSSIVALSAHFHYVYAAYENKVGIYKRGIEEHLLELETDANVEHLCIFGDYLCASTDDNSIFIYKKSDPQDKYPSEFYTKLTVTEIQGGEIVSLQHLATYLNKLTVVTKSNVLLFNVRTGKLVFTSNEFPDQITTAEPAPVLDIIALGTVTGEVIMFNMRKGKRIRTIKIPQSRISSLSFRTDGSSHLSVGTSSGDLIFYDLDRRSRIHVLKNIHRESYGGVTQATFLNGQPIIVTSGGDNSLKEYVFDPSLSQGSGDVVVQPPRYLRSRGGHSQPPSYIAFADSQSHFMLSASKDRSLWSFSLRKDAQSQEMSQRLHKKQDGGRVGGSTIKSKFPEIVALAIENARIGEWENIITAHKDEKFARTWDMRNKRVGRWTFDTTDDGFVKSVAMSQCGNFGFIGSSNGSITIYNMQSGILRKKYKLHKRAVTGISLDGMNRKMVSCGLDGIVGFYDFNKSTLLGKLKLDAPITAMVYHRSSDLFALALDDLSIVVIDAVTQRVVRQLWGHSNRITAFDFSPEGRWIVSASLDSTIRTWDLPTGGCIDGIIVDNVATNVKFSPNGDLLATTHVTGNGICIWTNRAQFKTVSTRTIDESEFARMALPSTSVRGNDSMLSGALESNGGEDLNDIDFNTYTSLEQIDKELLTLSIGPRSKMNTLLHLDVIRKRSKPKEAPKKSEKLPFFLQLSGEKVGDEASVREGIAHETPEEIHRRDQEAQKKLDAEEQMNKFKVTGRLGFESHFTKQLREGSQSKDYSSLLATLINFSPAAVDLEIRSLNSFEPFDEIVWFIDALTQGLKSNKNFELYETFMSLLFKAHGDVIHANNKNQDIASALQNWEDVHKKEDRLDDLVKFCMGVAAFVTTA
binds: Pwp2-TAP (S. cerevisiae) [6] | Pwp2-TAP (S. cerevisiae) [2] | [5]
